PubChem BioAssay AID1259285 – Sanger Institute, 2017
Assay: 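Search of the kinome for kinases worth combining with drugs in colon cancer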 (primary screen). System: human HCC56 colorectal cancer cells. Reagent: siRNA pool against human genes. Treatment: DMSO vehicle, or anchor drug BYL719 at 1 µM, cetuximab at 5 µg/ml, or trametinib at 10 nM. Measurement: 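Viability as a ratio to non-targeting pool wells, averaged over replicates and turned into a robust z-score; synergy scores with BYL719, cetuximab or trametinib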. Scale: viability robust z-score, no drug: higher = more viable cells, weaker knock-down effect; viability vs non-targeting pool, no drug: higher = more viable cells; synergy score with BYL719: higher = stronger combined killing with BYL719. Rule for the call: 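Essential when the drug-free viability robust z-score falls below -3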. Meaning of the calls: active = essential without drug; inactive = no change without drug.
The whole screen tested 794 reagents; below is a random part of them. 20 of them (2.5%) count as active. 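Calls rest on the drug-free arm alone and ignore synergy scores; viability ratios seem to be capped at 1.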 Further read-outs or replicates are left out here. The record does not give: the amount of reagent, the time to read-out.

gene,"viability robust z-score, no drug","viability vs non-targeting pool, no drug",synergy score with BYL719,call
STK32B (serine/threonine kinase 32B),-0.421,0.924,-0.0322,inactive
ATR (ATR checkpoint kinase),0.458,1,-0.133,inactive
GATA3 (GATA binding protein 3),-0.875,0.886,-0.152,inactive
NME3 (NME/NM23 nucleoside diphosphate kinase 3),0.458,1,-0.137,inactive
ACVR1C (activin A receptor type 1C),0.458,1,-0.0817,inactive
MYLK2 (myosin light chain kinase 2),-0.187,0.945,0.0636,inactive
BMX (BMX non-receptor tyrosine kinase),0.458,1,-0.162,inactive
PPP2R1A (protein phosphatase 2 scaffold subunit Aalpha),0.458,1,-0.162,inactive
CIT (citron rho-interacting serine/threonine kinase),-2.81,0.719,0.107,inactive
TEC (tec protein tyrosine kinase),0.458,1,-0.0628,inactive
CALM3 (calmodulin 3),0.458,1,-0.162,inactive
DLG1 (discs large MAGUK scaffold protein 1),0.458,1,-0.0222,inactive
STK26 (serine/threonine kinase 26),0.458,1,-0.111,inactive
AXIN2 (axin 2),0.458,1,-0.125,inactive
BRDT (bromodomain testis associated),0.458,1,-0.161,inactive
RPS6KA6 (ribosomal protein S6 kinase A6),0.458,1,0.0448,inactive
INSRR (insulin receptor related receptor),-0.267,0.938,0.13,inactive
LMTK2 (lemur tail kinase 2),-0.0865,0.953,0.0742,inactive
SMG1,0.0554,0.965,0.0631,inactive
PKN1 (protein kinase N1),0.458,1,-0.137,inactive

3 entries from above, set out differently:
LMTK2 (lemur tail kinase 2)
- viability robust z-score, no drug: -0.0865
- viability vs non-targeting pool, no drug: 0.953
- synergy score with BYL719: 0.0742
- call: inactive

SMG1
- viability robust z-score, no drug: 0.0554
- viability vs non-targeting pool, no drug: 0.965
- synergy score with BYL719: 0.0631
- call: inactive

PKN1 (protein kinase N1)
- viability robust z-score, no drug: 0.458
- viability vs non-targeting pool, no drug: 1
- synergy score with BYL719: -0.137
- call: inactive
